The assay deals with T1, Myc-DACH1-FL (human) (UniProt Q9UI36).
T1 sequence: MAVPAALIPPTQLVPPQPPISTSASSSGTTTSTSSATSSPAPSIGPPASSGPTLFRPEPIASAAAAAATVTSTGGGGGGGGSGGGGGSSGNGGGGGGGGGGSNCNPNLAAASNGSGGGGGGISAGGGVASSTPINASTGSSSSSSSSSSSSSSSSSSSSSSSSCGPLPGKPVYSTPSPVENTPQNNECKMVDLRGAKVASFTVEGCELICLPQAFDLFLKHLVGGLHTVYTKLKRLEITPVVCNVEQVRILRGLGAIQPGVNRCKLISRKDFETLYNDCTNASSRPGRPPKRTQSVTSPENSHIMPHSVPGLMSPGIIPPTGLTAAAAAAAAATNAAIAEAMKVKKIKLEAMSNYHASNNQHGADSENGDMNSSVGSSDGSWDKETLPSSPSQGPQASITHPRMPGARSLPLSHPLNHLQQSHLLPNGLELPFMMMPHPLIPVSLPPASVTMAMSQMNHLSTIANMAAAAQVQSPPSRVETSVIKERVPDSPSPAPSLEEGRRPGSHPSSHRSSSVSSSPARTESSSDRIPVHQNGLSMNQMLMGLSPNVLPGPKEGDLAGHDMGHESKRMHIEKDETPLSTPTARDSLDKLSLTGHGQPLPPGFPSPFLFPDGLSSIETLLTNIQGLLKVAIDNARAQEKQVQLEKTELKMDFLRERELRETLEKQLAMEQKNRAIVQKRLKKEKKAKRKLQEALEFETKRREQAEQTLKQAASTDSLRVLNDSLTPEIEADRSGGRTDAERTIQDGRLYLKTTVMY
Nature of the assay: affinity purification with mass spectrometry; Myc-DACH1 stably expressed in HCT8 cells; whole cell extracts purified with anti-Myc affinity beads, then mass spectrometry.

These are yes or no findings as the source states them, for the method shown. In cells and extracts the contact can be indirect. These calls come from enrichment with a bait or labelling near it, and not all partners need be listed. Tags and fused reporters may be left off the sequences shown.

B1: E3 ubiquitin-protein ligase UHRF1 (endogenous) (enzyme, UniProt Q96T88 1-793)
chain: MWIQVRTMDGRQTHTVDSLSRLTKVEELRRKIQELFHVEPGLQRLFYRGKQMEDGHTLFDYEVRLNDTIQLLVRQSLVLPHSTKERDSELSDTDSGCCLGQSESDKSSTHGEAAAETDSRPADEDMWDETELGLYKVNEYVDARDTNMGAWFEAQVVRVTRKAPSRDEPCSSTSRPALEEDVIYHVKYDDYPENGVVQMNSRDVRARARTIIKWQDLEVGQVVMLNYNPDNPKERGFWYDAEISRKRETRTARELYANVVLGDDSLNDCRIIFVDEVFKIERPGEGSPMVDNPMRRKSGPSCKHCKDDVNRLCRVCACHLCGGRQDPDKQLMCDECDMAFHIYCLDPPLSSVPSEDEWYCPECRNDASEVVLAGERLRESKKKAKMASATSSSQRDWGKGMACVGRTKECTIVPSNHYGPIPGIPVGTMWRFRVQVSESGVHRPHVAGIHGRSNDGAYSLVLAGGYEDDVDHGNFFTYTGSGGRDLSGNKRTAEQSCDQKLTNTNRALALNCFAPINDQEGAEAKDWRSGKPVRVVRNVKGGKNSKYAPAEGNRYDGIYKVVKYWPEKGKSGFLVWRYLLRRDDDEPGPWTKEGKDRIKKLGLTMQYPEGYLEALANREREKENSKREEEEQQEGGFASPRTGKGKWKRKSAGGGPSRAGSPRRTSKKTKVEPYSLTAQQSSLIREDKSNAKLWNEVLASLKDRPASGSPFQLFLSKVEETFQCICCQELVFRPITTVCQHNVCKDCLDRSFRAQVFSCPACRYDLGRSYAMQVNQPLQTVLNQLFPGYGNGR
Regarding B1, the binding result is reported as “binds”.

(Values after publication PMC12089419.)
